The record followed here is paper doi:10.1101/2021.10.08.463712.

Chains of the proteins cited; added tags and fusions are not shown.
UniProt Q9M086: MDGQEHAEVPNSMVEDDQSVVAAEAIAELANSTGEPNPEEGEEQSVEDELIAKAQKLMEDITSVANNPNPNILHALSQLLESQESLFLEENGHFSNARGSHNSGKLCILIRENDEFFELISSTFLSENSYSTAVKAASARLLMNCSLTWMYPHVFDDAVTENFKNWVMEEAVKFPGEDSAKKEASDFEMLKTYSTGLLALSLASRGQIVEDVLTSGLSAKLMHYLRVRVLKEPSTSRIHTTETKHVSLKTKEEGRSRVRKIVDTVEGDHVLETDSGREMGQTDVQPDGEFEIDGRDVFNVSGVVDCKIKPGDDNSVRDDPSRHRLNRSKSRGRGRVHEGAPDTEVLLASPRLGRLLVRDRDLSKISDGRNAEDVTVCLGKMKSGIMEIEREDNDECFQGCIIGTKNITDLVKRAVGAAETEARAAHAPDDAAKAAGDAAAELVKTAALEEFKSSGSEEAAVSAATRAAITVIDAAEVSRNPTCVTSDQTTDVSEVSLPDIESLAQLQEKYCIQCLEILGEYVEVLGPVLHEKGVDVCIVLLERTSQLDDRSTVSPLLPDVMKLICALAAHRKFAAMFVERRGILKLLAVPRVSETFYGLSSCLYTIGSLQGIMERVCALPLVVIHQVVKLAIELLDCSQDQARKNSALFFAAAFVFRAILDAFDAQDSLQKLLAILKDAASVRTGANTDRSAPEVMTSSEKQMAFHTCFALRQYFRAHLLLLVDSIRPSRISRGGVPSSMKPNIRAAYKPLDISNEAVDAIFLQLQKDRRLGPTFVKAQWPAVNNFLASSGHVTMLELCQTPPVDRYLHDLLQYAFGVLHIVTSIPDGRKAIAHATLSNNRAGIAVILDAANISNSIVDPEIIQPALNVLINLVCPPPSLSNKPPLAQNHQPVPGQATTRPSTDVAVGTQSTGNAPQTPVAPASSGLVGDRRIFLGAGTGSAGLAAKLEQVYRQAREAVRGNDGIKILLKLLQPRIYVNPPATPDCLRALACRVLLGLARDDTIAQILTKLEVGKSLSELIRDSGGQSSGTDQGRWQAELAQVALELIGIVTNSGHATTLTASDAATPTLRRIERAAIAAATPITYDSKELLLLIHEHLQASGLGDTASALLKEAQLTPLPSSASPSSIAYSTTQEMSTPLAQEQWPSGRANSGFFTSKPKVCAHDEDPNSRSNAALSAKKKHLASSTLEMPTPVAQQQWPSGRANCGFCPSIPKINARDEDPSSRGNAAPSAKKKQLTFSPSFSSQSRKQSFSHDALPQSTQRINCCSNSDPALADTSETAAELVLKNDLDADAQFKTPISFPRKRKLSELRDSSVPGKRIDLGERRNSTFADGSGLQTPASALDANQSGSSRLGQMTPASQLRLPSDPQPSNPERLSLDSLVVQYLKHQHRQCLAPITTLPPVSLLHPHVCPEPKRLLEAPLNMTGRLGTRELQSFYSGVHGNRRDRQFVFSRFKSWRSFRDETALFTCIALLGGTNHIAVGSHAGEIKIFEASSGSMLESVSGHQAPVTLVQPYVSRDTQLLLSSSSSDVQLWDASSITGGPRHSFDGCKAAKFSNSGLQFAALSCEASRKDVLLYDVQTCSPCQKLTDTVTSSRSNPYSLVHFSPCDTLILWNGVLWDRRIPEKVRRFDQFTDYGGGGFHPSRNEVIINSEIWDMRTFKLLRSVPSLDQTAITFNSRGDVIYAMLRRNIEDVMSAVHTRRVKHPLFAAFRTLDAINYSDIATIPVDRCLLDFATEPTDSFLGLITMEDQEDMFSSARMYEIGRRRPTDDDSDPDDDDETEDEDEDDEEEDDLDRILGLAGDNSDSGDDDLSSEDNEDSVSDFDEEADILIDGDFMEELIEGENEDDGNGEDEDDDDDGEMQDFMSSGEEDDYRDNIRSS
UniProt O22467: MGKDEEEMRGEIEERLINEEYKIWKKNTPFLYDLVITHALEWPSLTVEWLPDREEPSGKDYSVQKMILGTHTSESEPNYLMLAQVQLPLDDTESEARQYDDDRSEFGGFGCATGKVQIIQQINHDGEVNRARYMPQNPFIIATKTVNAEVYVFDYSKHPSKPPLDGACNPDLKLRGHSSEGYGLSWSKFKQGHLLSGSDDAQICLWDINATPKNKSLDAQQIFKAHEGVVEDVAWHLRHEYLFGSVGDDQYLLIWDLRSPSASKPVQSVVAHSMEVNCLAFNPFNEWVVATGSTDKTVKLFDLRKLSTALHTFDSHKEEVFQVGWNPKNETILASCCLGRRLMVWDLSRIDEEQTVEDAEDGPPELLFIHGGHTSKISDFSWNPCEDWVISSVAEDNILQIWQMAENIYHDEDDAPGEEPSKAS

This experiment concerns the target T1, GFP-RZ-1C (Arabidopsis thaliana) (UniProt Q8RWN5).
T1 sequence: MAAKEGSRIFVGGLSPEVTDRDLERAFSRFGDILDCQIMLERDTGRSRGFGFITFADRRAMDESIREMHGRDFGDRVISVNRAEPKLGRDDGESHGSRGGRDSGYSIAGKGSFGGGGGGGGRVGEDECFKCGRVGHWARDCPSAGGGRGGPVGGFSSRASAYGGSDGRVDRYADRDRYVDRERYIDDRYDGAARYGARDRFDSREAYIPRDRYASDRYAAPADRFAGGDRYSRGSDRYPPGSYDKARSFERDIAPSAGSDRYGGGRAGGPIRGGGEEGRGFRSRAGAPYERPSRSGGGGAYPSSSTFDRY
Description: affinity purification with mass spectrometry.

No constants are given. Whether binding was seen depends on the method and setting. Binding seen in cells or lysates may run through a third protein. A yes stands for co-enrichment or nearness to the bait. Other partners may have been found. Sequences can lack the tags named with a protein.

In the case of DCAF1 (from UniProt Q9M086 1-1883), the binding result is “binds”.
As to MSI1 (from UniProt O22467 1-424), the binding result is recorded as “binds”.
Regarding EMB1579, the binding result is reported as “binds”.
To ACINUS belongs “binds”.

B1: MSI4 (protein, UniProt O22607 1-507)
chain: MESDEAAAVSPQATTPSGGTGASGPKKRGRKPKTKEDSQTPSSQQQSDVKMKESGKKTQQSPSVDEKYSQWKGLVPILYDWLANHNLVWPSLSCRWGPQLEQATYKNRQRLYLSEQTDGSVPNTLVIANCEVVKPRVAAAEHISQFNEEARSPFVKKYKTIIHPGEVNRIRELPQNSKIVATHTDSPDVLIWDVETQPNRHAVLGAANSRPDLILTGHQDNAEFALAMCPTEPFVLSGGKDKSVVLWSIQDHITTIGTDSKSSGSIIKQTGEGTDKNESPTVGPRGVYHGHEDTVEDVAFSPTSAQEFCSVGDDSCLILWDARTGTNPVTKVEKAHDADLHCVDWNPHDDNLILTGSADNTVRLFDRRKLTANGVGSPIYKFEGHKAAVLCVQWSPDKSSVFGSSAEDGLLNIWDYDRVSKKSDRAAKSPAGLFFQHAGHRDKVVDFHWNASDPWTIVSVSDDCETTGGGGTLQIWRMSDLIYRPEEEVVAELEKFKSHVMTCASKP
Regarding B1, the binding result is “binds”.

B2: DDB1A (protein, UniProt Q9M0V3 1-1088)
chain: MSSWNYVVTAHKPTSVTHSCVGNFTSPQELNLIVAKCTRIEIHLLTPQGLQPMLDVPIYGRIATLELFRPHGEAQDFLFIATERYKFCVLQWDPESSELITRAMGDVSDRIGRPTDNGQIGIIDPDCRLIGLHLYDGLFKVIPFDNKGQLKEAFNIRLEELQVLDIKFLFGCAKPTIAVLYQDNKDARHVKTYEVSLKDKDFVEGPWSQNSLDNGADLLIPVPPPLCGVLIIGEETIVYCSASAFKAIPIRPSITKAYGRVDVDGSRYLLGDHAGMIHLLVITHEKEKVTGLKIELLGETSIASTISYLDNAVVFVGSSYGDSQLVKLNLHPDAKGSYVEVLERYINLGPIVDFCVVDLERQGQGQVVTCSGAFKDGSLRVVRNGIGINEQASVELQGIKGMWSLKSSIDEAFDTFLVVSFISETRILAMNLEDELEETEIEGFLSQVQTLFCHDAVYNQLVQVTSNSVRLVSSTTRELRDEWHAPAGFTVNVATANASQVLLATGGGHLVYLEIGDGKLTEVQHALLEYEVSCLDINPIGDNPNYSQLAAVGMWTDISVRIFSLPELTLITKEQLGGEIIPRSVLLCAFEGISYLLCALGDGHLLNFQMDTTTGQLKDRKKVSLGTQPITLRTFSSKSATHVFAASDRPTVIYSSNKKLLYSNVNLKEVSHMCPFNSAAFPDSLAIAREGELTIGTIDDIQKLHIRTIPLGEHARRICHQEQTRTFGICSLGNQSNSEESEMHFVRLLDDQTFEFMSTYPLDSFEYGCSILSCSFTEDKNVYYCVGTAYVLPEENEPTKGRILVFIVEDGRLQLIAEKETKGAVYSLNAFNGKLLAAINQKIQLYKWMLRDDGTRELQSECGHHGHILALYVQTRGDFIVVGDLMKSISLLLYKHEEGAIEERARDYNANWMSAVEILDDDIYLGAENNFNLLTVKKNSEGATDEERGRLEVVGEYHLGEFVNRFRHGSLVMRLPDSEIGQIPTVIFGTVNGVIGVIASLPQEQYTFLEKLQSSLRKVIKGVGGLSHEQWRSFNNEKRTAEARNFLDGDLIESFLDLSRNKMEDISKSMNVQVEELCKRVEELTRLH
For B2, the binding entry is reported as “binds”.

B3: Histone deacetylase HDA19 (enzyme, UniProt O22446 1-501)
chain: MDTGGNSLASGPDGVKRKVCYFYDPEVGNYYYGQGHPMKPHRIRMTHALLAHYGLLQHMQVLKPFPARDRDLCRFHADDYVSFLRSITPETQQDQIRQLKRFNVGEDCPVFDGLYSFCQTYAGGSVGGSVKLNHGLCDIAINWAGGLHHAKKCEASGFCYVNDIVLAILELLKQHERVLYVDIDIHHGDGVEEAFYATDRVMTVSFHKFGDYFPGTGHIQDIGYGSGKYYSLNVPLDDGIDDESYHLLFKPIMGKVMEIFRPGAVVLQCGADSLSGDRLGCFNLSIKGHAECVKFMRSFNVPLLLLGGGGYTIRNVARCWCYETGVALGVEVEDKMPEHEYYEYFGPDYTLHVAPSNMENKNSRQMLEEIRNDLLHNLSKLQHAPSVPFQERPPDTETPEVDEDQEDGDKRWDPDSDMDVDDDRKPIPSRVKREAVEPDTKDKDGLKGIMERGKGCEVEVDESGSTKVTGVNPVGVEEASVKMEEEGTNKGGAEQAFPPKT
Take B3: the binding result is “binds”.
